Measured values published in patent US20230242885A1, “METHOD OF PRODUCING CARDIOMYOCYTE POPULATION, METHOD OF PROLIFERATING CARDIOMYOCYTES, CARDIOMYOCYTE POPULATION, TRANSPLANTATION MATERIAL, MULTINUCLEATED CARDIOMYOCYTE, AND KIT FOR PROLIFERATING CARDIOMYOCYTES” (Myoridge Co. Ltd., priority 2020, published 2023).

Tested on: cardiomyocytes induced from human iPS cells (253G1 strain)
Experiment: Proliferation culture of cardiomyocytes with WNT signal activator CHIR99021, serial subculture (Example 2)
Assay type: cell-based
Details: CHIR99021 3 μM; for average maximum length of multinucleated cardiomyocytes: 2.0×10^5 cells/cm^2
Method: A “ratio of multinucleated cardiomyocytes” was determined from a percentage of multinucleated cardiomyocytes in 10,000 cardiomyocytes.
Thereafter, the culture medium was replaced every 3 to 4 days, and culturing was performed for 2 weeks (a first serial subculture).
For the cells obtained after each serial subculture, “cardiomyocyte purity”, “cardiomyocyte proliferation rate”, “ratio of multinucleated cardiomyocytes”, and “average maximum length of multinucleated cardiomyocytes” were determined according to the same procedure as in Example 1.

Cc1cnc(-c2cnc(NCCNc3ccc(C#N)cn3)nc2-c2ccc(Cl)cc2Cl)[nH]1 [CHIR99021, 6-[2-[[4-(2,4-dichlorophenyl)-5-(5-methyl-1H-imidazol-2-yl)pyrimidin-2-yl]amino]ethylamino]pyridine-3-carbonitrile]
average maximum length of multinucleated cardiomyocytes (after first serial subculture): 85 μm | sarcomeric structures in multinucleated cardiomyocytes (after first serial subculture): striped sarcomeric structures were observed | sarcomeric structures in multinucleated cardiomyocytes (after third serial subculture, compared with first): a clearer striped structure could be observed | average maximum length of multinucleated cardiomyocytes (after third serial subculture): 106 μm
